From publication doi:10.1101/2022.10.27.514040 come the findings set out here.

These are yes or no findings as the source states them, for the method shown. For some assays here: In cells and extracts the contact can be indirect. Some results given as binding are weak or reduced against the parent protein; the word gives no strength. For some assays here: Sequences can lack the tags named with a protein.

Assay [1] concerns the target T1, BIN4-cYFP (Arabidopsis thaliana) (UniProt Q9FLU1).
T1 sequence: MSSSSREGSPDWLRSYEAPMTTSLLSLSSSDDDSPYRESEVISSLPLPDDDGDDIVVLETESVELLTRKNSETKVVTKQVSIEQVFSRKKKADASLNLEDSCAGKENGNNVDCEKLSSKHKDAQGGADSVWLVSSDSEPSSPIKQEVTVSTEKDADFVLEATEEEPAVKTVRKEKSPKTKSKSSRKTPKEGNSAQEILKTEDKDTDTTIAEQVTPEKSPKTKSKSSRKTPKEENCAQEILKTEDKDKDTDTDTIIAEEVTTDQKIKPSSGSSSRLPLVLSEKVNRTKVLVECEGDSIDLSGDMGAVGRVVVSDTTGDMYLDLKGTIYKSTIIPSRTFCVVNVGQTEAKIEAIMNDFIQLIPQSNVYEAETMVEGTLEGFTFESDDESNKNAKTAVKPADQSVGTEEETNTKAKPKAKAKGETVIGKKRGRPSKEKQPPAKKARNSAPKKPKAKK
The assay is described as follows: split reporter.

Assay [2] concerns the target T2, BIN4, Topoisomerase VI subunit, full-length cDNA as yeast two-hybrid bait (Arabidopsis thaliana) (UniProt Q9FLU1).
T2 sequence: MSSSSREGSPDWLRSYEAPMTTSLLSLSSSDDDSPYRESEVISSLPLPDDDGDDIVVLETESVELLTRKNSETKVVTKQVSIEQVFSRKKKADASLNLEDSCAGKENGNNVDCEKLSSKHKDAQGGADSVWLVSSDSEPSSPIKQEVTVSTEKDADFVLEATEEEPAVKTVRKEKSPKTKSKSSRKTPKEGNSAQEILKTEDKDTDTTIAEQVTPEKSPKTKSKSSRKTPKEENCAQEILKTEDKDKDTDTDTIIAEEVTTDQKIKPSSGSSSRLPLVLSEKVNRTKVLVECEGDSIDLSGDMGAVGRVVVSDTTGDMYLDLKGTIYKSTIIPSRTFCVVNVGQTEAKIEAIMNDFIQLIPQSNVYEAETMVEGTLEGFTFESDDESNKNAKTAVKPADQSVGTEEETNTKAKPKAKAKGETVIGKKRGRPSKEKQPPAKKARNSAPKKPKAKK
The assay is described as follows: two-hybrid.

B1: NLS-SMC3(602-807)-nYFP (domain or fragment, UniProt Q56YN8 602-807)
chain: KKLKFDSKFEPALGQVFGRTVVCRDLNVATRVAKNDDLDCITMEGDQVSRKGGMTGGFYDHRRSKLRFMNIIMQNTKSINEKEKELEDVRRQLQVIDQQITQLVTEQQRLEADWTLCKLQVEQLKQEIANANKQKHAIHKAIEYKEKLLGDIRTRIDQVRSSMSMKEAEMGTELVDHLTPEEREQLSKLNPEIKDLKEKKFAYQAD
B1: in assay [1], the binding entry is recorded as “binds weakly”.

B2: SMC3 193-807, yeast two-hybrid prey clone pB27A-36 (domain or fragment, UniProt Q56YN8 193-807)
chain: VHYLDERLRELDEEKEELRKYQQLDKQRKSLEYTIYDKELHDAREKLEQVEVARTKASEESTKMYDRVEKAQDDSKSLDESLKELTKELQTLYKEKETVEAQQTKALKKKTKLELDVKDFQDRITGNIQSKNDALEQLNTVEREMQDSLRELEAIKPLYESQVDKENQTSKRINELEKTLSILYQKQGRATQFSNKAARDKWLRKEIEDLKRVLDSNTVQEQKLQDEILRLNTDLTERDEHIKKHEVEIGELESRISKSHELFNTKKRERDEEQRKRKEKWGEESQLSSEIDKLKTELERAKKNLDHATPGDVRRGLNSIRRICADYRINGVFGPLVELVDCDEKFFTAVEVTAGNSLFNVVVENDDISTKIIRHLNSLKGGRVTFLPLNRIKAPRVNYPKDSDAIPLLKKLKFDSKFEPALGQVFGRTVVCRDLNVATRVAKNDDLDCITMEGDQVSRKGGMTGGFYDHRRSKLRFMNIIMQNTKSINEKEKELEDVRRQLQVIDQQITQLVTEQQRLEADWTLCKLQVEQLKQEIANANKQKHAIHKAIEYKEKLLGDIRTRIDQVRSSMSMKEAEMGTELVDHLTPEEREQLSKLNPEIKDLKEKKFAYQAD
On to B2, for which the binding entry in assay [2] is recorded as “binds”.

B3: NLS-SMC3(193-807)-nYFP (domain or fragment, UniProt Q56YN8 193-807)
chain: VHYLDERLRELDEEKEELRKYQQLDKQRKSLEYTIYDKELHDAREKLEQVEVARTKASEESTKMYDRVEKAQDDSKSLDESLKELTKELQTLYKEKETVEAQQTKALKKKTKLELDVKDFQDRITGNIQSKNDALEQLNTVEREMQDSLRELEAIKPLYESQVDKENQTSKRINELEKTLSILYQKQGRATQFSNKAARDKWLRKEIEDLKRVLDSNTVQEQKLQDEILRLNTDLTERDEHIKKHEVEIGELESRISKSHELFNTKKRERDEEQRKRKEKWGEESQLSSEIDKLKTELERAKKNLDHATPGDVRRGLNSIRRICADYRINGVFGPLVELVDCDEKFFTAVEVTAGNSLFNVVVENDDISTKIIRHLNSLKGGRVTFLPLNRIKAPRVNYPKDSDAIPLLKKLKFDSKFEPALGQVFGRTVVCRDLNVATRVAKNDDLDCITMEGDQVSRKGGMTGGFYDHRRSKLRFMNIIMQNTKSINEKEKELEDVRRQLQVIDQQITQLVTEQQRLEADWTLCKLQVEQLKQEIANANKQKHAIHKAIEYKEKLLGDIRTRIDQVRSSMSMKEAEMGTELVDHLTPEEREQLSKLNPEIKDLKEKKFAYQAD
For B3, the binding result in assay [1] was “binds”.

B4: NLS-SMC3(193-555)-nYFP (domain or fragment, UniProt Q56YN8 193-555)
chain: VHYLDERLRELDEEKEELRKYQQLDKQRKSLEYTIYDKELHDAREKLEQVEVARTKASEESTKMYDRVEKAQDDSKSLDESLKELTKELQTLYKEKETVEAQQTKALKKKTKLELDVKDFQDRITGNIQSKNDALEQLNTVEREMQDSLRELEAIKPLYESQVDKENQTSKRINELEKTLSILYQKQGRATQFSNKAARDKWLRKEIEDLKRVLDSNTVQEQKLQDEILRLNTDLTERDEHIKKHEVEIGELESRISKSHELFNTKKRERDEEQRKRKEKWGEESQLSSEIDKLKTELERAKKNLDHATPGDVRRGLNSIRRICADYRINGVFGPLVELVDCDEKFFTAVEVTAGNSLFNVVV
For the molecule B4, in assay [1], the binding entry is given as “binds weakly”.

B5: NLS-SMC3(193-807, Δ525-632)-nYFP (domain or fragment, UniProt Q56YN8)
chain: VHYLDERLRELDEEKEELRKYQQLDKQRKSLEYTIYDKELHDAREKLEQVEVARTKASEESTKMYDRVEKAQDDSKSLDESLKELTKELQTLYKEKETVEAQQTKALKKKTKLELDVKDFQDRITGNIQSKNDALEQLNTVEREMQDSLRELEAIKPLYESQVDKENQTSKRINELEKTLSILYQKQGRATQFSNKAARDKWLRKEIEDLKRVLDSNTVQEQKLQDEILRLNTDLTERDEHIKKHEVEIGELESRISKSHELFNTKKRERDEEQRKRKEKWGEESQLSSEIDKLKTELERAKKNLDHATPGDVRRGLNSIRRICADYRINGVVAKNDDLDCITMEGDQVSRKGGMTGGFYDHRRSKLRFMNIIMQNTKSINEKEKELEDVRRQLQVIDQQITQLVTEQQRLEADWTLCKLQVEQLKQEIANANKQKHAIHKAIEYKEKLLGDIRTRIDQVRSSMSMKEAEMGTELVDHLTPEEREQLSKLNPEIKDLKEKKFAYQAD
Consider B5, for which the binding result in assay [1] was “no binding”.
